From patent US20250361230A1, “LATS Inhibitors and Uses Thereof” (The USA, as Represented by the Secretary, Dept. of Heath …, priority 2022, published 2025)

By UniProt entry, the sequences of proteins in these tests, tags left out.
UniProt O95835, whole entry: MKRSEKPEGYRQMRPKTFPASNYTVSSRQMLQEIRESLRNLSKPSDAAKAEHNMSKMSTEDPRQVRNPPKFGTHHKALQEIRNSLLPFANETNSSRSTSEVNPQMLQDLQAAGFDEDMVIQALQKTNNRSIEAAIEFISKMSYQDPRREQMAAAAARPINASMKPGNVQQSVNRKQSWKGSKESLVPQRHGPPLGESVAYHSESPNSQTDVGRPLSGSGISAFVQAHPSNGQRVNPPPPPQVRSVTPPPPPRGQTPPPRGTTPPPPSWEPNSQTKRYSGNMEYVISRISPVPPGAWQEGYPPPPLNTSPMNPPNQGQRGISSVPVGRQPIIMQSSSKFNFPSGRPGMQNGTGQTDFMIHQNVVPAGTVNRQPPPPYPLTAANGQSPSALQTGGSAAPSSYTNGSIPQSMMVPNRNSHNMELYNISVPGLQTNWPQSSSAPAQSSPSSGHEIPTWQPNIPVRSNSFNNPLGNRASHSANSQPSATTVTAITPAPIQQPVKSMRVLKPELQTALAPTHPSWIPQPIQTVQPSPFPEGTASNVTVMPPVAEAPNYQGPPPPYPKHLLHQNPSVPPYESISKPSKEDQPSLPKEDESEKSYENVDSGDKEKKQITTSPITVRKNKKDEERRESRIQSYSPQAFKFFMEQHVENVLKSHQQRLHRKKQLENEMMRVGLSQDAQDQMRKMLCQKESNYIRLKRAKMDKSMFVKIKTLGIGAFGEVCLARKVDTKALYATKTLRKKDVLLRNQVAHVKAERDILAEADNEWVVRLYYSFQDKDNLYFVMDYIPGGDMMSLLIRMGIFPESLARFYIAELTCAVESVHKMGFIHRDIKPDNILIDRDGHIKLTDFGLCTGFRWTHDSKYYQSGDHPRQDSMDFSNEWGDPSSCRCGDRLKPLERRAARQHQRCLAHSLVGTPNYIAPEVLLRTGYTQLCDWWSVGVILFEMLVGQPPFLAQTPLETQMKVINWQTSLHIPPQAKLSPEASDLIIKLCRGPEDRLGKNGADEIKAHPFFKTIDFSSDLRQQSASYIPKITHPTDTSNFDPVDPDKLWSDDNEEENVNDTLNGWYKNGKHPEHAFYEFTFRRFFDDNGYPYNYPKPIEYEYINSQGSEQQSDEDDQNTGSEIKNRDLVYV
UniProt Q9NRM7, whole entry: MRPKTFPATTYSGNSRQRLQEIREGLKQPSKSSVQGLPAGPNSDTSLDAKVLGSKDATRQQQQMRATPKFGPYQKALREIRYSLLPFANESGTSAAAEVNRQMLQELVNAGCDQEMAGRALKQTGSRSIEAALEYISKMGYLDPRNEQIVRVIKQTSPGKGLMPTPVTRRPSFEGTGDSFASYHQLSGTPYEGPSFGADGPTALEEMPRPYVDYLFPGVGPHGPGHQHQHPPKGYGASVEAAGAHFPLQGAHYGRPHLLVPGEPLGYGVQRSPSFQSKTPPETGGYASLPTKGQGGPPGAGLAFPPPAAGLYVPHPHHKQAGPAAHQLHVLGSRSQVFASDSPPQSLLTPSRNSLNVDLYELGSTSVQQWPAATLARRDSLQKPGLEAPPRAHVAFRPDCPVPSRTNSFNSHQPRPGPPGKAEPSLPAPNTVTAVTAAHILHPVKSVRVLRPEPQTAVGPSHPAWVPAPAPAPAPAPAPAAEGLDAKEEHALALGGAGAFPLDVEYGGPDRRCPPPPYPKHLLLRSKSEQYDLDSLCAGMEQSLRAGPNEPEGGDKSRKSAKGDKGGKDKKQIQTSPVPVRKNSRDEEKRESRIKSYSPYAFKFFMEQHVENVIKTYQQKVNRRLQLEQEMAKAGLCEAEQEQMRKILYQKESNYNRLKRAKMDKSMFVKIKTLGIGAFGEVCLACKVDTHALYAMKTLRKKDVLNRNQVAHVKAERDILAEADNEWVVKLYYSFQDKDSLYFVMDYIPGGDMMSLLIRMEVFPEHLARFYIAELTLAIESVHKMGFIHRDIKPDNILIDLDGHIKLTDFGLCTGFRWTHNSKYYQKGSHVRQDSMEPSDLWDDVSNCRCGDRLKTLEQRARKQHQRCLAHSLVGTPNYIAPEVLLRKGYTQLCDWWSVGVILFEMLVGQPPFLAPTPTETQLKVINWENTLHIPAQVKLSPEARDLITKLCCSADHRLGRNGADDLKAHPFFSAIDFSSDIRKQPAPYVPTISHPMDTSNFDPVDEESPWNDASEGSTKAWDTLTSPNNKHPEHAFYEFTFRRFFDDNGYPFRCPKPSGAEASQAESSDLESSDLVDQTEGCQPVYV
UniProt P31749, whole entry: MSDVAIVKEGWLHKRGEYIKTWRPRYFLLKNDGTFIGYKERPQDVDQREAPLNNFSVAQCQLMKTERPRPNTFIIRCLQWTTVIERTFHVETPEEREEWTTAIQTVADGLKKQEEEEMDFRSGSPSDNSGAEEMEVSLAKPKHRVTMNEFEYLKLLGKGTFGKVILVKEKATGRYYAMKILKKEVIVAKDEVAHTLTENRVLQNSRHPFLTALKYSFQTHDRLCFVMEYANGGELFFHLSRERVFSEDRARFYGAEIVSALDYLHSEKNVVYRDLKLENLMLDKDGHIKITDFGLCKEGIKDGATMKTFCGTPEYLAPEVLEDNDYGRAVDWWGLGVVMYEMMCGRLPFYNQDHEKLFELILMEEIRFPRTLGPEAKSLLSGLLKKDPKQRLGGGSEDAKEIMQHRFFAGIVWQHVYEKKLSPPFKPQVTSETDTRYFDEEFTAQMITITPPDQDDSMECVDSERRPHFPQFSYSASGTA

Tests used:
[1] = biological target: LATS1 (Homo sapiens, UniProt O95835); assay: RBC HotSpot kinase assay (33P-ATP, P81 filter-binding), LATS1; conditions: read-out: LATS1 IC50; Table 32, biochemical kinase assay
[2] = biological target: LATS2 (Homo sapiens, UniProt Q9NRM7); assay: RBC HotSpot kinase assay (33P-ATP, P81 filter-binding), LATS2; conditions: read-out: LATS2 IC50; Table 32, biochemical kinase assay
[3] = biological target: AKT (Homo sapiens, UniProt P31749); assay: RBC HotSpot kinase assay (33P-ATP, P81 filter-binding), AKT; conditions: read-out: AKT IC50; Table 32, biochemical kinase assay

NCC(O)(c1ccccc1)c1ccc(-c2ccnc3[nH]ccc23)cc1 (stereo not drawn)
IC50 [1]: 6.5 nM | IC50 [2]: 8.6 nM | IC50 [3]: 8 nM

The match of structure and compound is tentative.
